# Data taken from the supplement of paper PMC6411743.
# Sequences of proteins named here, by UniProt entry; tags and fusion partners are left off. A change or cut given only in a name is not applied to a line headed by its entry.
# UniProt Q8NCH0: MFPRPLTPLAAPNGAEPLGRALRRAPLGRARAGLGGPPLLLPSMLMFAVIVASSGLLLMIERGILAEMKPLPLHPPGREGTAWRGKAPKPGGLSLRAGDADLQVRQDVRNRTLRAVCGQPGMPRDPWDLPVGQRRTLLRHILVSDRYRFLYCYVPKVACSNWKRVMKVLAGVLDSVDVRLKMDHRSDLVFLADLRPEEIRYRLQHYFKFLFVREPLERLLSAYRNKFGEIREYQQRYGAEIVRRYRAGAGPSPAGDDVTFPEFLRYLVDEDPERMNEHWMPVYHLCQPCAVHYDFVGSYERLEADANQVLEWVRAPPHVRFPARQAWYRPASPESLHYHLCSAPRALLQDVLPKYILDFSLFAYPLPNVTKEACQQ
# UniProt P19105: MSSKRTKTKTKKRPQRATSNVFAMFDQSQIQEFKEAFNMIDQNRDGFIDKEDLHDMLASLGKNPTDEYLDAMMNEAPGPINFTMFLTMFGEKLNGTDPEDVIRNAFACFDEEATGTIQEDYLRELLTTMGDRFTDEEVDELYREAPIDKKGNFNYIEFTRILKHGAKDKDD
# UniProt O14950, whole entry, looked up: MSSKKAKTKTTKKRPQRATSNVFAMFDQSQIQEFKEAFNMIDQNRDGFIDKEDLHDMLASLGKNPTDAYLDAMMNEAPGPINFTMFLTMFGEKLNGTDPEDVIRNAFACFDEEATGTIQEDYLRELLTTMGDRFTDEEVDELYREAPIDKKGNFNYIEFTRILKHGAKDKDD
# UniProt P42356, whole entry, looked up: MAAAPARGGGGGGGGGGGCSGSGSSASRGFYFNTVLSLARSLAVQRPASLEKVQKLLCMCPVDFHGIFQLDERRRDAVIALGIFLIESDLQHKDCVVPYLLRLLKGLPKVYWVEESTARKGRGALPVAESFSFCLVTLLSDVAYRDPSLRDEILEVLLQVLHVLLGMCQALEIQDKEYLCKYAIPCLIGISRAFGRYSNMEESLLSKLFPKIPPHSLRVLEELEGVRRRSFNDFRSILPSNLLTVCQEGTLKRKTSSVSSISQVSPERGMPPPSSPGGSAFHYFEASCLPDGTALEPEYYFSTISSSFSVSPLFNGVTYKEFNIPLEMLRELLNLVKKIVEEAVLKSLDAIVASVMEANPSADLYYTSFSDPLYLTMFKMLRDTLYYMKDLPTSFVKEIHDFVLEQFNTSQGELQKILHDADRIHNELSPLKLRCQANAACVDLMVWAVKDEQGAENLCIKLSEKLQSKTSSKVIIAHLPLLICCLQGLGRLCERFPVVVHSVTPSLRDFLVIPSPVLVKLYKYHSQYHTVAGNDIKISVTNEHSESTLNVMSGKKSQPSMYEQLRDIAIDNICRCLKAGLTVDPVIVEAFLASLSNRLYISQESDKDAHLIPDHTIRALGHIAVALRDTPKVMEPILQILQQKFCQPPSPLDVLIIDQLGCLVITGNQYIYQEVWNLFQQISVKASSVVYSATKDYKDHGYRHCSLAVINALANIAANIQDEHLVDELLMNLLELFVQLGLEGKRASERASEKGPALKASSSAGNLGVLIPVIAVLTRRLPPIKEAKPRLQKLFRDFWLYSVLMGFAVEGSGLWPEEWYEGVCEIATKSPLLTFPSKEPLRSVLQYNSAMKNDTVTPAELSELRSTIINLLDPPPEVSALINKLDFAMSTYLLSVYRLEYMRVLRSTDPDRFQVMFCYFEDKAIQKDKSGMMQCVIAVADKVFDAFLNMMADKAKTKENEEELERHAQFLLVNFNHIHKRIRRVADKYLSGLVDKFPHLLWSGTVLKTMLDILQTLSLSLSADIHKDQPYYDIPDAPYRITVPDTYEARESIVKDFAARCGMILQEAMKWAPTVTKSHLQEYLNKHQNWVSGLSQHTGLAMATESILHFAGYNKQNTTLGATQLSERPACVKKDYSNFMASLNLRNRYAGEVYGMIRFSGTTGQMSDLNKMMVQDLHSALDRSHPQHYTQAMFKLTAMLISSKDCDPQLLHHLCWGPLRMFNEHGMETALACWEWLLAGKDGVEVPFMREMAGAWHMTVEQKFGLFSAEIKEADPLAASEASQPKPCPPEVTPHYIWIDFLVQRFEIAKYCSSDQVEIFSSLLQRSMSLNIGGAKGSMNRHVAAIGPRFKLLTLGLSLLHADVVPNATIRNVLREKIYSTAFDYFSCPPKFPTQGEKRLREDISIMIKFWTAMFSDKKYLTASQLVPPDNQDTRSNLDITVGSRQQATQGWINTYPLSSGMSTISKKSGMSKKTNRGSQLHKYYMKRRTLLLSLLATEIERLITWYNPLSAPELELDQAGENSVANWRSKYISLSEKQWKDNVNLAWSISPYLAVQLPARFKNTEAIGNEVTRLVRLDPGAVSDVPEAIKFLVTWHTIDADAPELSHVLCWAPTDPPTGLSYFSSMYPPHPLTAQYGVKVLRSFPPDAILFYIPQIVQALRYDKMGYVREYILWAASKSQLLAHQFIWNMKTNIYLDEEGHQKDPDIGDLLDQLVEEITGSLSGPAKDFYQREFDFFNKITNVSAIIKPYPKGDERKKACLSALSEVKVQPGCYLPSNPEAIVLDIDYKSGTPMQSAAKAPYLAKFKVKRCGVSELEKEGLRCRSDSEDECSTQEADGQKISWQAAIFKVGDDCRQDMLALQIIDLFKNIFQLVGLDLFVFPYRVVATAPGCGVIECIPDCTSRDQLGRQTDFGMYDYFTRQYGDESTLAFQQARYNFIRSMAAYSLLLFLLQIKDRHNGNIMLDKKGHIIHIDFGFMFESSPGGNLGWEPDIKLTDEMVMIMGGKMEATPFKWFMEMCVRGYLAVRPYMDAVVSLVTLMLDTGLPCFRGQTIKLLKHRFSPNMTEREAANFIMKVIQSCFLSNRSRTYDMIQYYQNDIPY
# UniProt Q99848: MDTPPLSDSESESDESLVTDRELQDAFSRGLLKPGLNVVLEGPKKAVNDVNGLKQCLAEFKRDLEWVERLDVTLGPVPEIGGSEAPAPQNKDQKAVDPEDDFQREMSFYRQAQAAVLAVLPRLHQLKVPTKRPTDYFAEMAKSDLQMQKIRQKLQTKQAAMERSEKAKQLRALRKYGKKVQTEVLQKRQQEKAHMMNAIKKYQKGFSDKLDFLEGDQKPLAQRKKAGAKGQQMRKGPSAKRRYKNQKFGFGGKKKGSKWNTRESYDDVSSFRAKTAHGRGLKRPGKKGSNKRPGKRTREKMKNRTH
# UniProt P07992: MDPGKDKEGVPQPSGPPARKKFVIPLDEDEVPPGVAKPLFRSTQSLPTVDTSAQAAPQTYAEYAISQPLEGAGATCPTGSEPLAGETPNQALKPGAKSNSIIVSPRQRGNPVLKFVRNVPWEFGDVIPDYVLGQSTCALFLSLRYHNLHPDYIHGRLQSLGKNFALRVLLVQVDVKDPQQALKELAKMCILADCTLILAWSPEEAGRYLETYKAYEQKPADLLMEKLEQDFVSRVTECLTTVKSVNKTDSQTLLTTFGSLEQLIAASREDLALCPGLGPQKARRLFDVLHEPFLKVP
# UniProt Q96PV7: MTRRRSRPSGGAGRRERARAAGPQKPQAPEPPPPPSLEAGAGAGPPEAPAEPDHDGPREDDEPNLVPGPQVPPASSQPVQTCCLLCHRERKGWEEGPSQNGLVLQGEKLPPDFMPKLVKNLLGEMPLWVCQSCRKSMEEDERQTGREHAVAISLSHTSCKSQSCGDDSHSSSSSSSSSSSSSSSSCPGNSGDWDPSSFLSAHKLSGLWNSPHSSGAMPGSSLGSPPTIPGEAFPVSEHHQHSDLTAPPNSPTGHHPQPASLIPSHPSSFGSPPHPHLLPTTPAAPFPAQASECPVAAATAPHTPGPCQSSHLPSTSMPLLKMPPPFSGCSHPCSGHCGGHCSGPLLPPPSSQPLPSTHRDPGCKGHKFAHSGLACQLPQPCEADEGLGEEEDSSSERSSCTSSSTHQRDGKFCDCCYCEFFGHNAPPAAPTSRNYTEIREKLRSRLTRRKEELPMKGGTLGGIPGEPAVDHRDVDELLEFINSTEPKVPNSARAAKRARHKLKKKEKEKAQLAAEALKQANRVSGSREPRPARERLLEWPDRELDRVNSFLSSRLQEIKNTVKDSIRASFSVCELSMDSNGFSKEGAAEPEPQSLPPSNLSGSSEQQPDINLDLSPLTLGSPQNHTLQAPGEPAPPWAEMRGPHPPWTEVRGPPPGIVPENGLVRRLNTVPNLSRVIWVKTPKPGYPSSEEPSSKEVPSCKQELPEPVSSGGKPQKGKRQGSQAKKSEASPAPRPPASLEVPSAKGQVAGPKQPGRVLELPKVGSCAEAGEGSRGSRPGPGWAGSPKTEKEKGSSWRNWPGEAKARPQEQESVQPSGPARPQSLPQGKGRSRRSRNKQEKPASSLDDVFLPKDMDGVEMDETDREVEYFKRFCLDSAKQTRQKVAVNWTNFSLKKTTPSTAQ
# UniProt P67812: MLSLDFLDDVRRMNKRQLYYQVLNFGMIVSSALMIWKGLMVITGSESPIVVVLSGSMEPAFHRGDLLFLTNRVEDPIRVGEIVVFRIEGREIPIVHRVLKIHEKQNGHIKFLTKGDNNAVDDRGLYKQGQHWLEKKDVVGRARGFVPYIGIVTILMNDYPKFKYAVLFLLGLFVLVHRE
# UniProt Q9BTT0: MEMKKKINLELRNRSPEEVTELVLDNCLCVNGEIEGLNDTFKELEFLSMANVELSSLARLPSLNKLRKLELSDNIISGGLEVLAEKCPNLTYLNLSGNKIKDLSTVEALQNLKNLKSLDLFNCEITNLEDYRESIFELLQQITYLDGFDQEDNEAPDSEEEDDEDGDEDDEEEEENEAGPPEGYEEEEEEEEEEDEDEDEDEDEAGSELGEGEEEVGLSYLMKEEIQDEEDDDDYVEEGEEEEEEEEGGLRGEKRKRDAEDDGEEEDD
# UniProt Q8N2G8: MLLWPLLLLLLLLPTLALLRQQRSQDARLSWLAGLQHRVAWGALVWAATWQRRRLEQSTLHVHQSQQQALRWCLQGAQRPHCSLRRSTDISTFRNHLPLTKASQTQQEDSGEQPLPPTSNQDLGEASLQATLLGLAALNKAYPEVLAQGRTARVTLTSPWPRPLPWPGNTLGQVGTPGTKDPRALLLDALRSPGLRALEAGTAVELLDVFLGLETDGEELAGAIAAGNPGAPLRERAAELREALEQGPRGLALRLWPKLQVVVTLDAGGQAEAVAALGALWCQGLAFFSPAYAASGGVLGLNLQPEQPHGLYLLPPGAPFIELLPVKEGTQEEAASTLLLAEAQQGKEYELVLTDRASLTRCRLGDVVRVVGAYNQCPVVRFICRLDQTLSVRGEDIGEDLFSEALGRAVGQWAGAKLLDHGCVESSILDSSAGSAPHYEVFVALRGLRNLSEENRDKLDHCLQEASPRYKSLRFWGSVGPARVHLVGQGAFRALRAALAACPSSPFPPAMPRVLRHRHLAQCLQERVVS
# UniProt Q15287: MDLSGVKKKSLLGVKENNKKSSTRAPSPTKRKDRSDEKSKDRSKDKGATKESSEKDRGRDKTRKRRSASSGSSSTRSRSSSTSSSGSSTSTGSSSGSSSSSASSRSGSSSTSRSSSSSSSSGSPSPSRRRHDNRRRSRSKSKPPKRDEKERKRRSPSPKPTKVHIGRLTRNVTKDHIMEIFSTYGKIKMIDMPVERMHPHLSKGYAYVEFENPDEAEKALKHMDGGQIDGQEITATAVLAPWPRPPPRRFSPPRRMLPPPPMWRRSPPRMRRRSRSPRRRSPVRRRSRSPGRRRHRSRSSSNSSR
# UniProt Q14849, whole entry: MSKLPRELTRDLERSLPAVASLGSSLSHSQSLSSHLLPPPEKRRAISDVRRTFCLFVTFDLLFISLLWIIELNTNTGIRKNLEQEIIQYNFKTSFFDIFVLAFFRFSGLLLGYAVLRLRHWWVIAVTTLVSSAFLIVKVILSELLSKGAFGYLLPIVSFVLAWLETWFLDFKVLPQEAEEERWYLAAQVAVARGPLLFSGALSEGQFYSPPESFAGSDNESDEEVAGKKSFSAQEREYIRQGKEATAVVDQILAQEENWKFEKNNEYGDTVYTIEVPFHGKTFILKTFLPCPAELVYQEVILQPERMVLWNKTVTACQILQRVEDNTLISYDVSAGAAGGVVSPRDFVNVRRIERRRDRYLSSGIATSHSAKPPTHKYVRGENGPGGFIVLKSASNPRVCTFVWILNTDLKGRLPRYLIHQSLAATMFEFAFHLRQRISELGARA
# UniProt Q9NX61: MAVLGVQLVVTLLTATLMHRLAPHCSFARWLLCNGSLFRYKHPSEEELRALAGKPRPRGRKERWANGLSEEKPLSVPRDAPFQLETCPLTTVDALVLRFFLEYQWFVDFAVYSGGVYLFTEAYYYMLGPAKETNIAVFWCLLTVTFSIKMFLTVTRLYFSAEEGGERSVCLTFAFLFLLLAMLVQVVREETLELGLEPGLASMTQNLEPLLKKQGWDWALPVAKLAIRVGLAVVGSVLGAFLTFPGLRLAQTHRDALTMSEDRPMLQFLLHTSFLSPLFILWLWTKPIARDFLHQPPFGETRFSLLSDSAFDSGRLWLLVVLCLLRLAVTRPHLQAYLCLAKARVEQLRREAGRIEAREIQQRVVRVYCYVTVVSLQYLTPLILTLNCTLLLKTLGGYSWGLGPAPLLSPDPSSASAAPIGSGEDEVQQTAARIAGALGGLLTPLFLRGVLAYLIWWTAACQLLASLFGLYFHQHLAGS
# ± gives the standard deviation of the averaged measurements. This is a selection; strong and weak results do not stand in their true shares.
# Compound: Nc1ncnc2c1ncn2[C@@H]1O[C@H](COP(=O)(O)OP(=O)(O)OP(=O)(O)O)[C@@H](O)[C@H]1O [adenosine triphosphate]
# Experiment: NP40-soluble protein abundance relative to vehicle (solubility fold change) (ratio); higher = more soluble protein in presence of ATP
# Summary of the method: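 Eight concentrations, 0.1 to 10 mM, were tested on Jurkat crude lysate for 10 min at room temperature and then 3 min at 37 °C, in three independent experiments. The lysate was solubilised with 0.8% NP40 and benzonase, ultracentrifuged, and the supernatant TMT-labelled for LC-MS/MS. Each value is the fold change against the detergent-processed vehicle in its own replicate, from vsn-normalised intensities.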
Target,NP40-soluble protein abundance (concentration: 1mM),NP40-soluble protein abundance (concentration: 2mM),NP40-soluble protein abundance (concentration: 4mM),NP40-soluble protein abundance (concentration: 6mM),NP40-soluble protein abundance (concentration: 8mM),NP40-soluble protein abundance (concentration: 10mM)
H0YN65 and related entries (UniProt Q8NCH0),0.905 ± 0.067,0.946 ± 0.16,0.909 ± 0.12,0.919 ± 0.15,0.982 ± 0.14,0.994 ± 0.11
J3QRS3 and related entries (UniProt P19105+O14950+J3QRS3),0.966 ± 0.1,0.917 ± 0.071,0.875 ± 0.08,0.927 ± 0.11,0.877 ± 0.033,0.76 ± 0.089
J3KN10 and related entries (UniProt P42356),1.11 ± 0.14,1.09 ± 0.077,1.05 ± 0.025,1.05 ± 0.064,1.08 ± 0.029,1.12 ± 0.12
H7C2Q8 and related entries (UniProt Q99848),1.23 ± 0.13,1.24 ± 0.15,1.22 ± 0.17,1.18 ± 0.16,1.16 ± 0.14,1.19 ± 0.24
K7EP14 and related entries (UniProt P07992),0.996 ± 0.014,0.985 ± 0.028,0.929 ± 0.0094,0.936 ± 0.017,0.964 ± 0.023,0.912 ± 0.063
H0YCX2 and related entries (UniProt Q96PV7),1.07 ± 0.042,1.19 ± 0.2,1.29 ± 0.097,1.35 ± 0.11,1.3 ± 0.1,1.39 ± 0.12
J3KQ32 and related entries (UniProt Q9NTK5),0.989 ± 0.094,0.967 ± 0.08,0.94 ± 0.078,0.945 ± 0.1,0.965 ± 0.077,0.953 ± 0.059
H0YNG3 and related entries (UniProt P67812),1.05 ± 0.12,1.02 ± 0.088,1.03 ± 0.072,0.942 ± 0.14,1.04 ± 0.064,0.988 ± 0.046
H0YCE2 and related entries (UniProt Q9BTT0),0.89 ± 0.091,0.93 ± 0.048,0.91 ± 0.016,0.95 ± 0.1,0.859 ± 0.013,0.816 ± 0.056
K7ESN3 and related entries (UniProt Q8N2G8),1.05 ± 0.14,0.969 ± 0.026,1.02 ± 0.077,1.02 ± 0.071,0.992 ± 0.12,0.989 ± 0.064
H3BMM9 and related entries (UniProt Q15287),1.4 ± 0.16,1.3 ± 0.19,1.23 ± 0.19,1.19 ± 0.26,0.969 ± 0.18,1.09 ± 0.19
I3L182 and related entries (UniProt Q9UQ35),1.34 ± 0.072,1.39 ± 0.075,1.48 ± 0.1,1.56 ± 0.12,1.49 ± 0.069,1.45 ± 0.032
J3QLM1 and related entries (UniProt Q14849),1.14 ± 0.27,1.07 ± 0.13,1.1 ± 0.23,1.07 ± 0.052,1.19 ± 0.021,1.04 ± 0.21
K7EPA3 and related entries (UniProt Q9NX61),0.896 ± 0.11,0.929 ± 0.079,0.906 ± 0.096,0.912 ± 0.14,0.959 ± 0.019,0.937 ± 0.063
H3BUF6 and related entries (UniProt Q8WWM7),0.952 ± 0.059,0.97 ± 0.029,0.958 ± 0.045,1.04 ± 0.043,0.983 ± 0.023,0.9815 ± 0.0037

# In another format: entries from further up.
Target	NP40-soluble protein abundance (concentration: 1mM)	NP40-soluble protein abundance (concentration: 2mM)	NP40-soluble protein abundance (concentration: 4mM)	NP40-soluble protein abundance (concentration: 6mM)	NP40-soluble protein abundance (concentration: 8mM)	NP40-soluble protein abundance (concentration: 10mM)
J3QRS3 and related entries (UniProt P19105+O14950+J3QRS3)	0.966 ± 0.1	0.917 ± 0.071	0.875 ± 0.08	0.927 ± 0.11	0.877 ± 0.033	0.76 ± 0.089
J3KN10 and related entries (UniProt P42356)	1.11 ± 0.14	1.09 ± 0.077	1.05 ± 0.025	1.05 ± 0.064	1.08 ± 0.029	1.12 ± 0.12
